Source: PubChem BioAssay AID493014 (National Center for Advancing Translational Sciences (NCATS), 2011)
This is one part of the list. Further columns of the screen follow, without active or inactive calls. The list favours compounds with an active or inconclusive main result. Words in brackets tell the shape of the fitted curve; partial curves, single points and poor fits give uncertain potencies.

Test: qHTS Assay to Find Inhibitors of Chronic Active B-Cell Receptor Signaling
Settings: ABC-DLBCL IkBa-CBG/CBR reporter, luminescence ratio (green luciferase fused to IkBa over red control in TMD8 lymphoma cells), 4 h
Method in brief: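 Concentration-response series (up to 46 uM) were applied to TMD8 dual-reporter cells for 4 h at 37C with doxycycline. Green/red ratio, after filter-overlap correction, defined %Activity; red signal alone was normalised to basal cells and zero luminescence.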

[1] = measured here: CBR red luminescence, cell number
[2] = measured here: IkBa-CBG green luminescence

SMILES | AC50 [1] | AC50 [2]
CC1CCCN(C(=O)C2(NC(=O)Nc3cccc(F)c3)CCCCC2)C1 (stereo not drawn) | 17.8 µM [rising, single point] | 
O=C(NCCO)c1cccc(Nc2nc(-c3ccccc3)c3cc(Cl)ccc3n2)c1 | 0.316 µM [falling, full curve, poor fit] | 
COC(=O)c1ccc(COC(=O)CNC(=O)c2ccco2)cc1 | 1.64 µM [rising, partial curve, poor fit] | 
O=C1SC(SC(=Nc2ccccc2)Nc2ccccc2)C(=O)N1c1ccccc1 (stereo not drawn) | 5.17 µM [falling, partial curve] | 
CC(OC(=O)c1ccco1)C(=O)Nc1ccc(Cl)cn1 (stereo not drawn) | 12.6 µM [falling, partial curve, poor fit] | 
O=[N+]([O-])c1ccc(N/N=C2\CC3CC=CC23)cc1 (stereo not drawn) | 35.5 µM [falling, single point] | 
c1ccc(-c2nc3ccccc3[nH]2)nc1 | 13 µM [falling, single point] | 
COc1cc(/C(C#N)=C/c2ccccc2)c([N+](=O)[O-])cc1OC | 29.1 µM [falling, partial curve, poor fit] | 
O=C(Nc1ccc(Br)c(Cl)c1)c1ccco1 | 5.17 µM [rising, single point] | 
C/C(Cn1nnc2ccccc21)=N\NC(=O)c1cccc(Br)c1 | 4.11 µM [falling, partial curve, poor fit] | 
CCN1C(=NCc2ccco2)N[C@@H](c2cccc(F)c2)C(C(=O)OC)=C1C | 17.8 µM [falling, single point] | 
COc1cc(C2C3=C(CC(C)(C)CC3=O)OC(N)=C2[N+](=O)[O-])ccc1O (stereo not drawn) | 29.1 µM [falling, single point] | 
CCN(CC(=O)NC1CCCC1)S(=O)(=O)c1ccc(C)cc1 | 0.103 µM [rising, full curve, poor fit] | 
O=C(CCNC(=O)c1ccc([N+](=O)[O-])cc1)Oc1ccc(F)c(F)c1 | 10.3 µM [falling, single point] | 
CSc1cccc(NC(=O)COc2ccccc2)c1 | 1.58 µM [rising, full curve, poor fit] | 
COc1ccc(NC(=O)COc2ccccc2C)cc1S(=O)(=O)N1CCCCC1 | 23.1 µM [falling, partial curve, poor fit] | 
Cc1cc(=O)[nH]c(SCC(=O)N2CCc3ccccc3C2)n1 | 2.91 µM [rising, single point] | 
CC1(c2ccccc2)CC(C)(C)N(C(N)=O)c2ccccc21 (stereo not drawn) | 12.6 µM [rising, partial curve, poor fit] | 
CC1(c2ccccc2)CC(C)(C)N(C(=O)C2CCCO2)c2ccccc21 (stereo not drawn) | 20.6 µM [rising, single point] | 
CC12/C(=N/O)C3C4CC5C3/C(=N/O)C1C5C42 (stereo not drawn) | 5.17 µM [rising, single point] | 
Cc1ccc(O)c(NC(=S)NC(=O)/C=C/c2ccco2)c1 | 11.2 µM [falling, partial curve] | 
COc1ccc2nc(SCC(=O)NCCc3ccccc3)[nH]c2c1 | 3.55 µM [rising, single point] | 

SMILES | AC50 [1] | AC50 [2]
CCOc1ncccc1C(=O)OCC(=O)Nc1cc(S(=O)(=O)N2CCOCC2)ccc1Cl | 29.1 µM [falling, single point] | 
CC1=CC2=NC(=O)CC(C)(C(=O)N(CC(=O)NC(C)(C)C)Cc3ccccc3)N2C=C1 (stereo not drawn) | 31.6 µM [rising, single point] | 
COc1ccc(CSc2nnnn2C)cc1[N+](=O)[O-] | 3.16 µM [rising, partial curve, poor fit] | 
C=C[C@]1(C)C=C2CC[C@H]3[C@@](C)(CCC[C@@]3(C)C(=O)O)[C@@H]2CC1 | 16.4 µM [rising, single point] | 
Cc1csc(=O)n1CC(=O)OCC(=O)Nc1ccccc1C(C)C | 29.1 µM [rising, single point] | 
Cc1ccc(/C=N/NC(=O)c2ccc3nc[nH]c3c2)o1 | 14.1 µM [falling, single point] | 
O=C(NCC1CCCC(CNC(=O)N2CCc3ccccc32)C1)N1CCc2ccccc21 (stereo not drawn) | 4.11 µM [falling, single point] | 
O=C(CN1C(=O)S/C(=C/c2cccs2)C1=O)N1CCCC1 | 14.6 µM [rising, single point] | 
Cc1oc(S(=O)(=O)N(C)C)cc1C(=O)Nc1ccc(F)cc1 | 11.2 µM [falling, single point] | 
Cc1cc(C(C)(C)C)ccc1OCCOCCN1CCCC1 | 29.1 µM [falling, single point] | 
O=C(NC1CCCCC1)C(c1ccc2ncccc2c1)N(Cc1cccs1)C(=O)c1cccs1 (stereo not drawn) | 2.24 µM [falling, full curve] | 14.1 µM [rising, partial curve, poor fit]
O=C(OC1CCc2ccccc2C1=O)c1ccccc1O (stereo not drawn) | 4.11 µM [rising, partial curve, poor fit] | 
Cc1ccc(CNC(=O)CSCC(=O)O)cc1 | 20.6 µM [rising, single point] | 
OC[C@@H]1[C@@H](c2ccc(Cl)cc2)C(c2cccc(Cl)c2)=NN1c1ccccc1 | 29.1 µM [falling, single point] | 
Cc1ccc(Oc2ncccc2NC(=O)CC2(CC(=O)O)CCCC2)c2c1CCC2 | 6.31 µM [rising, single point] | 
O=C(COC(=O)c1ccccc1NC(=O)c1ccco1)Nc1ncc(Cl)cc1Cl | 29.1 µM [falling, single point] | 
COc1ccc(/C=N/Nc2nnc(-c3ncc[nH]3)c3ccccc23)cc1 | 35.5 µM [rising, single point] | 
COc1cccc2cc(-c3cc(=O)oc4ccc(OCC(C)=O)cc34)oc12 | 1.58 µM [falling, partial curve, poor fit] | 
CCOc1ccc(CN(C)C(=O)c2ccc(NS(=O)(=O)c3ccc4[nH]c(=O)[nH]c4c3)cc2)cc1 | 1.64 µM [rising, full curve, poor fit] | 
COc1ccc(/C=C/C(=O)NCCCN2CCOCC2)cc1 | 5.62 µM [falling, single point] | 5.62 µM [rising, single point]
N#CC(C#N)=C(N)CSc1cccc[n+]1[O-] | 1.41 µM [falling, full curve, poor fit] | 0.631 µM [falling, partial curve, poor fit]
O=[N+]([O-])c1ccc(N=Cc2sc3ccccc3c2O)cc1 | 8.2 µM [falling, partial curve] | 

Structures above containing bromine:
SMILES | AC50 [1] | AC50 [2]
O=C(Nc1ccc(Br)c(Cl)c1)c1ccco1 | 5.17 µM [rising, single point] | 
C/C(Cn1nnc2ccccc21)=N\NC(=O)c1cccc(Br)c1 | 4.11 µM [falling, partial curve, poor fit] | 

Continued.

SMILES | AC50 [1] | AC50 [2]
O=C1C(c2ccncc2)N(CCC2=CCCCC2)C(=O)CN1C1CCCCC1 (stereo not drawn) | 0.501 µM [falling, full curve, poor fit] | 
CCOc1ccc(NC(=O)COC(=O)c2cc(=O)c3ccccc3o2)cc1 | 14.6 µM [falling, partial curve, poor fit] | 
COc1cc(C2SCC(=O)N2Cc2ccccc2)cc(OC)c1OC (stereo not drawn) | 0.112 µM [rising, full curve, poor fit] | 
Cc1ccc(OCC(=O)N(Cc2ccco2)C2CCS(=O)(=O)C2)cc1C (stereo not drawn) | 35.5 µM [falling, single point] | 
O=C(CSCC(=O)Nc1cccc2ccccc12)Nc1cccc2ccccc12 | 7.08 µM [falling, partial curve] | 
Cc1ccc(/C=N/NC(=O)c2c[nH]c3ccccc23)s1 | 7.08 µM [falling, partial curve] | 
CCS(=O)(=O)CCSc1nc2ccccc2o1 | 6.51 µM [rising, single point] | 
COc1ccc(/C=N/Nc2nnc(-c3ccccc3)c(=O)[nH]2)cc1 | 10.3 µM [falling, partial curve, poor fit] | 
O=C1N[C@H](Cc2ccccc2)COC(=O)[C@H](Cc2ccc(F)cc2)CC/C=C/C[C@@H]1CC(=O)N(CCO)Cc1ccccc1 | 11.6 µM [falling, single point] | 
O=C(CSc1nc(Nc2ccccc2)nc(N2CCOCC2)n1)Nc1ccc2c(c1)OCCO2 | 35.5 µM [falling, single point] | 
Cc1cc(C)nc(N/N=C/c2cccc3ccccc23)n1 | 29.1 µM [falling, single point] | 
COc1cc(/C=C/c2noc(-c3ccccc3O)n2)ccc1OC(C)=O | 11.2 µM [falling, partial curve] | 
Cc1ccc(C(=O)C[n+]2cc(-c3ccccc3)n3c2CCCCC3)cc1 | 23.1 µM [falling, single point] | 
N#Cc1ccccc1COC(=O)CCN=C1NS(=O)(=O)c2ccccc21 | 18.4 µM [rising, partial curve, poor fit] | 
Cc1ccc(/C=N/Nc2ccc(Cl)c(C(=O)O)c2)s1 | 0.082 µM [falling, full curve] | 
COc1cc(N2C(=O)C=CC2=O)c(OC)cc1Cl | 17.8 µM [falling, partial curve] | 
COc1ccc2nc(SCC(=O)N3CCN(c4ccc(F)cc4)CC3)c(C#N)cc2c1 | 16.4 µM [falling, partial curve] | 
CCOC(=O)C1=C(CC)Nc2ccccc2N=C1NC(=O)c1ccc(C)c(S(=O)(=O)N2CCOCC2)c1 | 1.84 µM [rising, partial curve, poor fit] | 
O=S(=O)(c1ccc(OC(F)(F)F)cc1)N1CCC(O)(c2cccc(C(F)(F)F)c2)CC1 | 11.2 µM [falling, partial curve] | 
NNC(=O)c1[nH]c2ccc([N+](=O)[O-])cc2c1-c1ccccc1 | 5.62 µM [rising, full curve] | 4.47 µM [falling, full curve]
